The list shows a part of the results. Residues, ends and D or L forms follow the SMILES beside them. *: point of attachment. Cbz = O=C(OCc1ccccc1)*
Columns and labels:
Experiment in all cases: log2 fold change, soluble protein after heating vs DMSO (PISA); higher = thermal stabilisation; K562 cells, 10 uM, 30 min; active = over 0.2 and 3.5 SD of the protein, either way, in both replicates (recomputed)
erlotinib = compound: C#Cc1cccc(Nc2ncnc3cc(OCCOC)c(OCCOC)cc23)c1 [erlotinib]
In short: (§1)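 Thermal stability values are relative to control samples and come from duplicates. They are expressed as log2 fold changes. For measurement, K562 cells (2×10^6 cells/mL) received 10 μM compound for 30 min, and aliquots were heated for 3 min over 48°C-58°C, pooled, and extracted at 4°C in PBS with 0.5% NP-40. Soluble protein, the supernatant after 21,000xg for 90 min, was quantified by TMTpro 16plex LC-MS/MS with equalised channel sums.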

Sequences of proteins named here, by UniProt entry; tags and fusion partners are left off. A change or cut given only in a name is not applied to a line headed by its entry.
UniProt Q8WVV9: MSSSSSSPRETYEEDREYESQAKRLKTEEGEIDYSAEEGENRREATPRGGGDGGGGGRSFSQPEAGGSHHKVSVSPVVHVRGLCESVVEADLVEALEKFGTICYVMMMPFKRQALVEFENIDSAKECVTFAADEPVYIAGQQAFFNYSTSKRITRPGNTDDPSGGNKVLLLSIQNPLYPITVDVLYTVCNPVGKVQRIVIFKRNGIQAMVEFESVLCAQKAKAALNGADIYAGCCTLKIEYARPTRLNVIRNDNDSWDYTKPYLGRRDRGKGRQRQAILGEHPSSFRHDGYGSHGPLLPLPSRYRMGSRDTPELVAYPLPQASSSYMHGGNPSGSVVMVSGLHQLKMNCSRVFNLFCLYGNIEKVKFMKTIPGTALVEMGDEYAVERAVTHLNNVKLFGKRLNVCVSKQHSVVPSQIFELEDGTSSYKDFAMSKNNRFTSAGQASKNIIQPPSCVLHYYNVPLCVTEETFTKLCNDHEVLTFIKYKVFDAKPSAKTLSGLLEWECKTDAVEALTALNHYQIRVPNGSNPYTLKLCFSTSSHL
UniProt P08397: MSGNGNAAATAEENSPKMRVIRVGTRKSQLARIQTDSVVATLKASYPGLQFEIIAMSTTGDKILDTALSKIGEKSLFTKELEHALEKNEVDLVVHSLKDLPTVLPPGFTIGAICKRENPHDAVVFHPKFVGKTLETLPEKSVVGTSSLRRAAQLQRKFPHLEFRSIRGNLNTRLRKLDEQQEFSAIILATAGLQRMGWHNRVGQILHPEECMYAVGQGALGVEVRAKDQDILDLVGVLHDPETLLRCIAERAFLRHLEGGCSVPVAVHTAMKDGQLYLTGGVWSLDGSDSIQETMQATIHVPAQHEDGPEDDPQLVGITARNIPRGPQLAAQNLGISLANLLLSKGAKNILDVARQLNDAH
UniProt P34931, whole entry, looked up: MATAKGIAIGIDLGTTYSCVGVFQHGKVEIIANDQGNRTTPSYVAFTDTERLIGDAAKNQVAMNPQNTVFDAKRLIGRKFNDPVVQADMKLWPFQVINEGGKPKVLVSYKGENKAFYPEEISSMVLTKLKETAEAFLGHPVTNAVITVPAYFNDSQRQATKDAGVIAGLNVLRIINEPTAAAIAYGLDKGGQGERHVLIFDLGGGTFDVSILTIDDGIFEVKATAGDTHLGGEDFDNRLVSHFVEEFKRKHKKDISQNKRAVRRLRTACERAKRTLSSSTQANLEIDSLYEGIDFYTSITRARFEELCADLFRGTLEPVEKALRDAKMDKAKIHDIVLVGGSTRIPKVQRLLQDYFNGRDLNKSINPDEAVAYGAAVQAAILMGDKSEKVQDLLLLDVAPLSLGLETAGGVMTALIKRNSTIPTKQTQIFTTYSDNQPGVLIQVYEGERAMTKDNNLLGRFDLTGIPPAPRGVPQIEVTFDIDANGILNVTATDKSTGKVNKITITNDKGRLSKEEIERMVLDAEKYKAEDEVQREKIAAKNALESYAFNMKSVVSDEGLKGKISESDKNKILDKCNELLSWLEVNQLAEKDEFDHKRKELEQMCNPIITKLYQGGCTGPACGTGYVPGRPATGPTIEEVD
UniProt Q99729: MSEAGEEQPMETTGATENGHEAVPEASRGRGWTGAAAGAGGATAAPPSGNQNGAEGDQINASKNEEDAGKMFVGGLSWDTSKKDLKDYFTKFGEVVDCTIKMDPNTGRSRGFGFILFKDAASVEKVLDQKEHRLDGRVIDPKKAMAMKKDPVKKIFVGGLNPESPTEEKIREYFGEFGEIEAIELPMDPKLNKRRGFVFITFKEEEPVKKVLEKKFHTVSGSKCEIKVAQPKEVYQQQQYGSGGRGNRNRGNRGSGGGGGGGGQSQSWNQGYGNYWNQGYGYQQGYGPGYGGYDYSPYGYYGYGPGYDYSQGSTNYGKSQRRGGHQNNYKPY
UniProt Q7LGA3: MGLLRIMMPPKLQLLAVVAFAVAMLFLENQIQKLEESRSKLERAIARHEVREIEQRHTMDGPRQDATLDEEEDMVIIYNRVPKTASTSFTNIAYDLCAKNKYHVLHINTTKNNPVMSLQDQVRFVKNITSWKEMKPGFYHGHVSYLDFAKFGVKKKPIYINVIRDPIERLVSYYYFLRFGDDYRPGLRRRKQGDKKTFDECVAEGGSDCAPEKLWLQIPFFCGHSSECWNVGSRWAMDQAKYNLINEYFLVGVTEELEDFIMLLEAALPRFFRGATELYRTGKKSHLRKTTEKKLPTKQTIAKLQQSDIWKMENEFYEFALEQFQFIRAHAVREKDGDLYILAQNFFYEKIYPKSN
UniProt P04792, whole entry, looked up: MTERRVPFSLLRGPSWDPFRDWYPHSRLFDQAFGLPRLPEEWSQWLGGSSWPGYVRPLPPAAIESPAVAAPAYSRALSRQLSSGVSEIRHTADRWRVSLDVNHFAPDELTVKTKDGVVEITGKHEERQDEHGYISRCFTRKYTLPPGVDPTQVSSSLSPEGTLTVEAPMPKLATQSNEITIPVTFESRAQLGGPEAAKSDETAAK
UniProt P35914: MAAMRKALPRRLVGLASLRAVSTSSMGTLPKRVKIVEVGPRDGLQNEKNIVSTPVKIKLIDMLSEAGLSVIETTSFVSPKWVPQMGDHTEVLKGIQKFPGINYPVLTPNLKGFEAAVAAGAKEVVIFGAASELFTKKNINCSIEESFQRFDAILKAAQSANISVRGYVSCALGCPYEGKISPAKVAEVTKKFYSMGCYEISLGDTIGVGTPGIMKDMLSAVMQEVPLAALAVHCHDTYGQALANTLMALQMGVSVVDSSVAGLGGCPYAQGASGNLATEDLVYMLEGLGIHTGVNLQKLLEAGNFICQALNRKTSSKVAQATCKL
UniProt P48723: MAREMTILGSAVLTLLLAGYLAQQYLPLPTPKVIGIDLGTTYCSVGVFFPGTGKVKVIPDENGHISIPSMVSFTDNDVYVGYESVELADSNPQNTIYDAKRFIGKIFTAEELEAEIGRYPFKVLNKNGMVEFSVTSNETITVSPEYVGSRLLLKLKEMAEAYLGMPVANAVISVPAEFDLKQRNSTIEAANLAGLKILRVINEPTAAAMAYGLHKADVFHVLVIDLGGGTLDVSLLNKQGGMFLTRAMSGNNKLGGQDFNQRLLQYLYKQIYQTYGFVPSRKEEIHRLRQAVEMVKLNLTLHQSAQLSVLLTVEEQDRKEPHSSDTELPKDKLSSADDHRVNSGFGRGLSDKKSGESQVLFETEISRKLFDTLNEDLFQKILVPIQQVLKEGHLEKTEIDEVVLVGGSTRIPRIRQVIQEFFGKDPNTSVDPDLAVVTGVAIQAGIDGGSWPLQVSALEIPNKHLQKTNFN
UniProt P56937: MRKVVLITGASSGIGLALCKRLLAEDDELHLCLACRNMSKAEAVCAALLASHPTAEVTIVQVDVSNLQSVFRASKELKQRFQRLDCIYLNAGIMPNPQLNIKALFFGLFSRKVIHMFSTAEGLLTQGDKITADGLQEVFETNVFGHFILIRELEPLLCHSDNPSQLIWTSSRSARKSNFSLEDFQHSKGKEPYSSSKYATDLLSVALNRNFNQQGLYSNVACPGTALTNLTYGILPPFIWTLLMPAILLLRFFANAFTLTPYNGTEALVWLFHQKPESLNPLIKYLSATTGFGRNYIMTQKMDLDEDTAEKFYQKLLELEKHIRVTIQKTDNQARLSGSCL
UniProt Q9BTY7: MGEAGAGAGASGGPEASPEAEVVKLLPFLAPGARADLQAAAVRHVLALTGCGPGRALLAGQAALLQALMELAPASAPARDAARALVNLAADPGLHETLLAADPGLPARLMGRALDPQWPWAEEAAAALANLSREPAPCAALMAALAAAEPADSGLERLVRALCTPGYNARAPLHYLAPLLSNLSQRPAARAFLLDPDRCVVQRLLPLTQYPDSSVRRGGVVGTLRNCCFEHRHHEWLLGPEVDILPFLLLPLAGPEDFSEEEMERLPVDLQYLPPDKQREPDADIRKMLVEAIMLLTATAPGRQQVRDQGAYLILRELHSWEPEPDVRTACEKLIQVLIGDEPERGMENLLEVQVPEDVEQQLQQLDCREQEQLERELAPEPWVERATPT
UniProt Q14773: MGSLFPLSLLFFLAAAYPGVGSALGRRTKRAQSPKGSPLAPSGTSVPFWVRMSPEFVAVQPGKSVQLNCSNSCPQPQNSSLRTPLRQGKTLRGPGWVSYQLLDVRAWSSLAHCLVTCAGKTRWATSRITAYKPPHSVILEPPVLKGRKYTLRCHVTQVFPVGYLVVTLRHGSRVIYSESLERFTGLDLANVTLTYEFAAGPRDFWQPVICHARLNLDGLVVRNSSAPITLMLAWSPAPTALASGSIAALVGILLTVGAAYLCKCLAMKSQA
UniProt P22626: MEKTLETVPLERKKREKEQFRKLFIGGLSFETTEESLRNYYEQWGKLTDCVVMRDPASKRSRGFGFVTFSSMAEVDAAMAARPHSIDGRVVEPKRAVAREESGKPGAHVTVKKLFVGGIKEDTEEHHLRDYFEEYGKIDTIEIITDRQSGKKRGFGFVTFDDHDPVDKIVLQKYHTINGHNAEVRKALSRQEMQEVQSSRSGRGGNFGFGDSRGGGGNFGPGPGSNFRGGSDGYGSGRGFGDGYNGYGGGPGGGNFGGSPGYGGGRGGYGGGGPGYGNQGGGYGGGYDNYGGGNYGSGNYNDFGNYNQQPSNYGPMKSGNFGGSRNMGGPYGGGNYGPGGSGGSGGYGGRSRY
UniProt P19367: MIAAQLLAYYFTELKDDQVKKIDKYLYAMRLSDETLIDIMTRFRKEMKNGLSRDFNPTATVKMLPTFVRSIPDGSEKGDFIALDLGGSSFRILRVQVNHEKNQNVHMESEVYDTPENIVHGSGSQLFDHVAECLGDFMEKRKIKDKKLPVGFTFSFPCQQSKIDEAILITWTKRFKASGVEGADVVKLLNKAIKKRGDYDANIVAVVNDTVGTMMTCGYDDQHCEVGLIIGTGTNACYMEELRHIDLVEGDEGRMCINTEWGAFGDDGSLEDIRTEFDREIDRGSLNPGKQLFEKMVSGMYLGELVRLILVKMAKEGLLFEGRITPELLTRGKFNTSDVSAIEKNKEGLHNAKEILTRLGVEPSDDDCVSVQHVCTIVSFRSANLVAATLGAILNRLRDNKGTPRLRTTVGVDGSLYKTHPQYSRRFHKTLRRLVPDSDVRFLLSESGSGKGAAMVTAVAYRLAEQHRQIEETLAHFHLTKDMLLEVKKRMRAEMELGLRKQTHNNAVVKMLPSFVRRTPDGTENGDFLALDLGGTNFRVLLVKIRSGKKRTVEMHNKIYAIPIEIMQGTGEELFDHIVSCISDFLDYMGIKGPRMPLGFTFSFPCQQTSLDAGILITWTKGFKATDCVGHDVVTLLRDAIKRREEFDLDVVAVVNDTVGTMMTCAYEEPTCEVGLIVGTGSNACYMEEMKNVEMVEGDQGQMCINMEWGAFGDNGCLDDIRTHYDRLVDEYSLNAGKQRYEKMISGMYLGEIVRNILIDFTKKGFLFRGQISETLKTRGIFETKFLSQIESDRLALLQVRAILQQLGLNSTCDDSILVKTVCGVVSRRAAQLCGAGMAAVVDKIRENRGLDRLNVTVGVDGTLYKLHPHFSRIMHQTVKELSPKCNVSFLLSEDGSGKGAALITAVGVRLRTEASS
UniProt O14979: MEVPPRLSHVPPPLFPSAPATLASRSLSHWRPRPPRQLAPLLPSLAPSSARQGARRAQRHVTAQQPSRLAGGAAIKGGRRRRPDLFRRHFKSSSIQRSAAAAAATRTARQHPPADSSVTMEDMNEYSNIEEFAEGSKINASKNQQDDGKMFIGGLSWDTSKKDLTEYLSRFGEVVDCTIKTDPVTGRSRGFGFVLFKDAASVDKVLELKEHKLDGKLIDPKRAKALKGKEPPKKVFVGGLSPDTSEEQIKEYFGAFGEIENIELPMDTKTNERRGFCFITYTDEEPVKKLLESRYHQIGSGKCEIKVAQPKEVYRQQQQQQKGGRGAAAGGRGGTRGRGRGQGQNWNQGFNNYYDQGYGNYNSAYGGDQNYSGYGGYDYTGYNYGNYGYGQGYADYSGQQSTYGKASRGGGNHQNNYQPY
UniProt O60921: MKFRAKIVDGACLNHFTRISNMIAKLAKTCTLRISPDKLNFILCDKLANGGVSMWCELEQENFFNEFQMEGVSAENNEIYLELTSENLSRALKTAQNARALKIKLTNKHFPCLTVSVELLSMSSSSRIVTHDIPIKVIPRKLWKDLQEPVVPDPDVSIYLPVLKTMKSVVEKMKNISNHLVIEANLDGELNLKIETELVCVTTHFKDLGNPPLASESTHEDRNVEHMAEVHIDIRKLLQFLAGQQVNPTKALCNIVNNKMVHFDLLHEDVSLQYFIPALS

[1] = compound: C/C(=N\NC(=O)C1=CC(=CC=C1)S(=O)(=O)N2CCOCC2)/C3=C(C=CC(=C3)Cl)O
In short: as §1

[2] = compound: C1=CC(=C(C=C1Cl)C2=NC3=NC=CN=C3C(=N2)NC4=CC=NC=C4)F
In short: as §1

[3] = compound: C1=CC(=CC=C1C2=NC3=C(N2)C=C(C=C3)C(=O)N)OC4=CC=C(C=C4)Cl
In short: as §1

[4] = compound: C1=CC2=C(C=CC(=C2)/C=C\3/C(=O)NC(=NCC4=CC=CS4)S3)N=C1
In short: as §1

[5] = compound: C1=CC2=NC=CN=C2C=C1/C=C/3\C(=O)NC(=O)S3
In short: as §1

[6] = compound: C1=CC=C(C=C1)C2=NC(=C(N2)C3=CC=NC=C3)C4=CC(=C(C=C4)Cl)O
In short: as §1

[7] = compound: C1=CC=C2C(=C1)C3=NNC4=CC=CC(=C43)C2=O
In short: as §1

[8] = compound: C1CCN(C1)C(=O)NC2=CC=CC(=C2)NC3=NC=C(C(=N3)NCCC4=CN=CN4)Br
In short: as §1

[9] = compound: C1CN(CCC1(CC2=CC=C(C=C2)Cl)N)C3=NC=NC4=C3C=CN4
In short: as §1

IRAK-1-4 Inhibitor I = compound: C1COCCN1CCN2C3=CC=CC=C3N=C2NC(=O)C4=CC(=CC=C4)[N+](=O)[O-] [IRAK-1-4 Inhibitor I]
In short: as §1

ibrutinib = compound: C=CC(=O)N1CCC[C@@H](n2nc(-c3ccc(Oc4ccccc4)cc3)c3c(N)ncnc32)C1 [ibrutinib]
In short: as §1

[10] = compound: CC(=O)c1cnc2ccc(-c3cc(Cl)c(O)c(Cl)c3)nc2c1N[C@H]1CC[C@H](CN(C)C)CC1
In short: as §1

ralimetinib = compound: CC(C)(C)Cn1c(N)nc2ccc(-c3[nH]c(C(C)(C)C)nc3-c3ccc(F)cc3)nc21 [ralimetinib]
In short: as §1

[11] = compound: CC(C)(O)CC(=O)NCCn1ccc2ncnc(Nc3ccc(Oc4cccc(C(F)(F)F)c4)c(Cl)c3)c21
In short: as §1

[12] = compound: CC(C)C1=C2N=C(C=C(N2N=C1)NCC3=CC=CC=C3)NCCCCCCN
In short: as §1

[13] = compound: CC(C)C[C@@H](C=O)NC(=O)[C@H](CC(C)C)NC(=O)[C@H](CC(C)C)NC(=O)OCc1ccccc1
In short: as §1

pinometostat = compound: CC(C)N(C[C@H]1O[C@@H](n2cnc3c(N)ncnc32)[C@H](O)[C@@H]1O)[C@H]1C[C@@H](CCc2nc3cc(C(C)(C)C)ccc3[nH]2)C1 [pinometostat]
In short: as §1

[14] = compound: CC1=C(C(CC(=O)N1)C2=CC=C(C=C2)C(F)(F)F)C(=O)NC3=C(C=C4C(=C3)C=NN4)F
In short: as §1

[15] = compound: CC1=C(C2=C(C=C1)C(=O)C3=CC=CC=C3N2CCCN)C
In short: as §1

Measured: log2 fold change

HNRNPLL (UniProt Q8WVV9)
inactive: erlotinib 0.081 | [1] 0.11 | [2] -0.034 | [3] -0.001 | [4] 0.057 | [5] -0.034 | [6] 0.064 | [7] 0 | [8] -0.131 | [9] 0.008 | IRAK-1-4 Inhibitor I -0.108 | ibrutinib 0.12 | [10] -0.303 | ralimetinib -0.018 | [11] 0.027 | [12] -0.264 | [13] -0.007 | pinometostat -0.022 | [14] 0.039 | [15] -0.012

HMBS (UniProt P08397)
inactive: erlotinib 0 | [1] 0.011 | [2] 0.031 | [3] 0.004 | [4] -0.034 | [5] -0.001 | [6] 0.035 | [7] -0.007 | [8] -0.015 | [9] 0.062 | IRAK-1-4 Inhibitor I 0.049 | ibrutinib 0.022 | [10] 0.008 | ralimetinib -0.008 | [11] 0.01 | [12] 0.105 | [13] -0.043 | pinometostat -0.056 | [14] 0.008 | [15] -0.012

HSPA1L (UniProt P34931)
inactive: erlotinib -0.074 | [1] -0.226 | [2] -0.013 | [3] 0.053 | [4] 0.114 | [5] -0.052 | [6] -0.056 | [7] -0.127 | [8] 0.082 | [9] 0.222 | IRAK-1-4 Inhibitor I 0.018 | ibrutinib 0.091 | [10] 0.092 | ralimetinib -0.032 | [11] -0.064 | [12] 0.073 | [13] -0.081 | pinometostat -0.022 | [14] -0.086 | [15] 0.011

HNRNPAB isoform 3 (UniProt Q99729)
inactive: erlotinib -0.093 | [1] -0.162 | [2] -0.253 | [3] -0.005 | [4] -0.064 | [5] 0.025 | [6] -0.1 | [7] -0.008 | [8] 0.086 | [9] -0.092 | IRAK-1-4 Inhibitor I -0.056 | ibrutinib 0.027 | [10] 0.099 | ralimetinib 0.026 | [11] 0.115 | [12] 0.169 | [13] 0.04 | pinometostat 0.036 | [14] 0.009 | [15] -0.037

HS2ST1 (UniProt Q7LGA3)
inactive: erlotinib 0.018 | [1] -0.057 | [2] -0.091 | [3] -0.008 | [4] 0.023 | [5] -0.004 | [6] -0.078 | [7] 0.024 | [8] 0.009 | [9] 0.012 | IRAK-1-4 Inhibitor I -0.008 | ibrutinib 0.022 | [10] 0.059 | ralimetinib 0.001 | [11] 0.052 | [12] -0.034 | [13] 0.025 | pinometostat 0.068 | [14] 0.002 | [15] 0.118

HSPB1 (UniProt P04792)
inactive: erlotinib 0.007 | [1] 0.018 | [2] -0.062 | [3] 0.003 | [4] 0.008 | [5] 0 | [6] 0.027 | [7] -0.019 | [8] -0.009 | [9] -0.116 | IRAK-1-4 Inhibitor I -0.05 | ibrutinib -0.02 | [10] 0.114 | ralimetinib 0.089 | [11] 0.044 | [12] -0.04 | [13] 0.035 | pinometostat 0.063 | [14] -0.058 | [15] 0.031

HMGCL (UniProt P35914)
inactive: erlotinib -0.02 | [1] -0.065 | [2] 0.047 | [3] 0.005 | [4] 0.026 | [5] -0.046 | [6] 0.071 | [7] 0.027 | [8] -0.056 | [9] 0.053 | IRAK-1-4 Inhibitor I 0.07 | ibrutinib 0.021 | [10] 0.063 | ralimetinib -0.024 | [11] -0.087 | [12] 0.025 | [13] -0.056 | pinometostat -0.031 | [14] 0.015 | [15] 0.015

HSPA13 (UniProt P48723)
inactive: erlotinib -0.007 | [1] 0.035 | [2] 0.012 | [3] 0.007 | [4] -0.033 | [5] 0.034 | [6] -0.052 | [7] 0.025 | [8] -0.01 | [9] 0.039 | IRAK-1-4 Inhibitor I -0.01 | ibrutinib 0.012 | [10] -0.023 | ralimetinib 0.023 | [11] 0.003 | [12] 0.037 | [13] 0.021 | pinometostat 0.004 | [14] 0.026 | [15] -0.086

HSD17B7 (UniProt P56937)
inactive: erlotinib -0.018 | [1] 0.123 | [2] 0.078 | [3] -0.02 | [4] 0.076 | [5] 0.014 | [6] 0.088 | [7] 0.001 | [8] -0.035 | [9] 0.019 | IRAK-1-4 Inhibitor I -0.011 | ibrutinib 0.039 | [10] -0.035 | ralimetinib -0.029 | [11] -0.047 | [12] -0.177 | [13] -0.085 | pinometostat -0.039 | [14] -0.005 | [15] 0.047

HGH1 (UniProt Q9BTY7)
inactive: erlotinib -0.058 | [1] -0.075 | [2] -0.191 | [3] 0.146 | [4] 0.001 | [5] 0.093 | [6] -0.02 | [7] 0 | [8] -0.06 | [9] -0.124 | IRAK-1-4 Inhibitor I -0.057 | ibrutinib -0.005 | [10] 0.128 | ralimetinib 0.244 | [11] -0.061 | [12] 0.089 | [13] 0.228 | pinometostat -0.01 | [14] -0.031 | [15] 0.09

ICAM4 (UniProt Q14773)
inactive: erlotinib 0.028 | [1] -0.025 | [2] -0.053 | [3] -0.013 | [4] 0.035 | [5] 0.07 | [6] -0.057 | [7] -0.031 | [8] -0.118 | [9] 0.064 | IRAK-1-4 Inhibitor I -0.035 | ibrutinib 0.026 | [10] -0.022 | ralimetinib -0.063 | [11] 0.043 | [12] 0.036 | [13] 0.054 | pinometostat 0.03 | [14] 0.056 | [15] -0.019

HIST2H2AA3 (UniProt Q6FI13)
inactive: erlotinib -0.115 | [1] -0.063 | [2] -0.422 | [3] 0.052 | [4] -0.205 | [5] 0.146 | [6] 0.014 | [7] 0.023 | [8] 0.065 | [9] -0.477 | IRAK-1-4 Inhibitor I -0.099 | ibrutinib 0.175 | [10] 0.186 | ralimetinib 0.195 | [11] 0.061 | [12] 0.088 | [13] 0.229 | pinometostat 0.42 | [14] -0.114 | [15] 0.956

HNRNPA2B1 (UniProt P22626)
inactive: erlotinib -0.134 | [1] -0.116 | [2] -0.532 | [3] 0.015 | [4] -0.109 | [5] 0.087 | [6] -0.089 | [7] -0.015 | [8] 0.09 | [9] -0.092 | IRAK-1-4 Inhibitor I -0.15 | ibrutinib 0.082 | [10] 0.204 | ralimetinib 0.171 | [11] 0.217 | [12] 0.164 | [13] 0.176 | pinometostat 0.19 | [14] 0.025 | [15] -0.031

HK1 isoform 2 (UniProt P19367)
inactive: erlotinib 0.014 | [1] -0.004 | [2] 0.032 | [3] -0.005 | [4] 0.012 | [5] 0.017 | [6] -0.027 | [7] -0.016 | [8] 0.003 | [9] 0.03 | IRAK-1-4 Inhibitor I -0.008 | ibrutinib -0.007 | [10] -0.006 | ralimetinib -0.066 | [11] -0.034 | [12] 0.026 | [13] -0.033 | pinometostat -0.054 | [14] 0.02 | [15] 0.03

HNRNPDL (UniProt O14979)
inactive: erlotinib -0.096 | [1] -0.131 | [2] -0.269 | [3] -0.015 | [4] -0.059 | [5] 0.043 | [6] -0.125 | [7] -0.037 | [8] 0.079 | [9] -0.057 | IRAK-1-4 Inhibitor I -0.122 | ibrutinib 0.041 | [10] 0.119 | ralimetinib 0.052 | [11] 0.101 | [12] 0.124 | [13] 0.046 | pinometostat 0.063 | [14] 0.069 | [15] -0.073

HUS1 (UniProt O60921)
inactive: erlotinib 0.029 | [1] 0.023 | [2] 0.09 | [3] 0.018 | [4] -0.004 | [5] -0.023 | [6] 0 | [7] -0.043 | [8] -0.003 | [9] 0.027 | IRAK-1-4 Inhibitor I -0.002 | ibrutinib -0.001 | [10] -0.019 | ralimetinib -0.046 | [11] -0.048 | [12] 0.029 | [13] -0.022 | pinometostat -0.034 | [14] 0.002 | [15] 0.033

Two successive records from above, for reference:
HK1 isoform 2 (UniProt P19367)
inactive: erlotinib 0.014 | [1] -0.004 | [2] 0.032 | [3] -0.005 | [4] 0.012 | [5] 0.017 | [6] -0.027 | [7] -0.016 | [8] 0.003 | [9] 0.03 | IRAK-1-4 Inhibitor I -0.008 | ibrutinib -0.007 | [10] -0.006 | ralimetinib -0.066 | [11] -0.034 | [12] 0.026 | [13] -0.033 | pinometostat -0.054 | [14] 0.02 | [15] 0.03

HNRNPDL (UniProt O14979)
inactive: erlotinib -0.096 | [1] -0.131 | [2] -0.269 | [3] -0.015 | [4] -0.059 | [5] 0.043 | [6] -0.125 | [7] -0.037 | [8] 0.079 | [9] -0.057 | IRAK-1-4 Inhibitor I -0.122 | ibrutinib 0.041 | [10] 0.119 | ralimetinib 0.052 | [11] 0.101 | [12] 0.124 | [13] 0.046 | pinometostat 0.063 | [14] 0.069 | [15] -0.073
